# Test results from US11413280B2 (The Board of Trustees of the Leland Stanford Junior …, priority 2017, dated 2022).
# For at least one compound, name, drawing or mass did not settle the structure.
# Tested on: Caspase 3/7 in PAECs
# Test: Caspase-Glo 3/7 apoptosis assay
# Format: cell-based, human
# Settings: 24 hours; 5 μM or 15 μM Enzastaurin; 5 μM Ly333531 hydrochloride
# Description: Assays were conducted according to the manufacturer's instructions and as previously described(E1,E9).
# Quantified area=% of cells that show nuclear γH2AX staining quantified with automated software (white nuclei=positive stain, grey nuclei=background stain). […] FIGS. 9G-9H, MTT proliferation assay in Enzastaurin-treated (0.5-50 M) in PASMC and PAEC, respectively. (n=3). FIGS. 9I-9J, MTT proliferation assay in Enzastaurin-treated (5 M) siFHIT and siBMPR2 transfected PASMC compared to Ntsi control, respectively. (n=3).
# As a cumulative viability measurement, we quantified caspase3/7 activity, using the luminescent Caspase-Glo®3/7 assay(36) and DNA damage, using histone H2AX phosphorylation by immunofluorescence and quantification as nuclear area staining (%) by confocal microscopy(34, 35, 37). […] PAEC proliferation was assessed via an MTT proliferation assay and hemocytometer cell counts(36).
smiles,measurement,value
CN(C)C[C@@H]1CCn2cc(c3ccccc32)C2=C(C(=O)NC2=O)c2cn(c3ccccc23)CCO1 [Ly333531],Caspase 3/7-mediated apoptosis in synchronised PAECs,but not
